These are yes or no findings as the source states them, for the method shown.
Legend:
Assay in all cases: ELISA
Kremen1 = molecular target: Kremen1
PODXL = molecular target: PODXL
SELP = molecular target: SELP
SEMA6A = molecular target: SEMA6A
LRRC4C = molecular target: LRRC4C
TLR4 = molecular target: TLR4
CD276 = molecular target: CD276
LRP12 = molecular target: LRP12
LRRTM2 = molecular target: LRRTM2
BTNL9 = molecular target: BTNL9
CD40LG = molecular target: CD40LG
FASLG = molecular target: FASLG
C18orf1 = molecular target: C18orf1
BTN3A1 = molecular target: BTN3A1
ECM1 = molecular target: ECM1
SPINT2 = molecular target: SPINT2
BTN3A2 = molecular target: BTN3A2
TNFSF18 = molecular target: TNFSF18
BTN1A1 = molecular target: BTN1A1
LINGO1 = molecular target: LINGO1
TNR = molecular target: TNR
EMR1 = molecular target: EMR1
GP1BA = molecular target: GP1BA
LRP11 = molecular target: LRP11
TNFSF13 = molecular target: TNFSF13
TLR7 = molecular target: TLR7
BTN3A3 = molecular target: BTN3A3
LRP6 = molecular target: LRP6
TNFSF12 = molecular target: TNFSF12
TNFSF4 = molecular target: TNFSF4
CHRDL1 = molecular target: CHRDL1
CD97 = molecular target: CD97

Measured: binding

B1: PD1-41C9 (antibody, V domains shown)
VH: QMQLVESGGGVVQPGRSLRLSCAASGFTFSSYAMHWVRQAPGKGLEWVAVISYDGSNKYYADSVKGRFTISRDNSKNTLYLQMNRLRSEDTAVYYCTTTTFDSWGQGTLITVSS
VL: DIVMTQTPLSLPVTPGEAASISCRSSQSLLDSEDGNTYLDWYLQKPGQSPQLLIYTLSHRASGVPDRFSGSGSGTDFTLKISRVAAEDVGLYYCLQRMGFPYTFGQGTKLDIK
no binding (tested: 1 ug/ml): all assays above

Reference: US20190248900A1
